Record: PubChem BioAssay AID1159578 (Peter MacCallum Cancer Centre, 2015)

Test: 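siRNA pools altering how lymphatic endothelial cells close a scratch wound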 (primary screen)
Cell system: human lymphatic endothelial cells
Knock-down reagent: siRNA pool against human genes, 40 nM
Duration: 48 h after transfection
Detection: 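High-content imaging of dye-stained cells in a scratch assay measures filled wound area and nuclei per well; duplicate means given as ratio to mock and robust z-score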
Scale: migration robust z-score: higher = faster migration into the scratch; nuclei per well: higher = more cells in the well
Active means: 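Pools averaging fewer than 3300 nuclei are never called; remaining pools count as changed when migration robust z lies outside -2 to 2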
Meaning of the calls: active = migration changed; inactive = no migration change, or too few cells
Shown is a random part of about 18,000 reagents. About 1,030 of all reagents (5.7%) count as active. 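Inactive calls also include pools with fewer than 3300 nuclei, whose migration was not assessed.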 The raw values are shown without normalisation. Further read-outs or replicates are left out here. No sequences are given here.

Silencing of GNG7 gave: migration robust z-score -0.43; nuclei per well, duplicate mean 6096; inactive.
After knock-down of ANKRD6, the screen gave migration robust z-score 0.28; nuclei per well, duplicate mean 6118; inactive.
After knock-down of DLG2, the screen gave migration robust z-score 0.49; nuclei per well, duplicate mean 5490; inactive.
Silencing of YTHDC1 came out at: migration robust z-score -1.29; nuclei per well, duplicate mean 6032; inactive.
Against PLCL2 the deposit lists migration robust z-score 0.52; nuclei per well, duplicate mean 6821; inactive.
After knock-down of GRK3, the record shows migration robust z-score 0.73; nuclei per well, duplicate mean 4896; inactive.
Knock-down of ATXN3 came out at: migration robust z-score -0.69; nuclei per well, duplicate mean 7720; inactive.
For RAB27A, the entry reads migration robust z-score 0.47; nuclei per well, duplicate mean 5860; inactive.
Knock-down of ZNF358 resulted in: migration robust z-score -0.82; nuclei per well, duplicate mean 5554; inactive.
Silencing of OR2C1 resulted in: migration robust z-score -0.34; nuclei per well, duplicate mean 5314; inactive.
SRA1 showed migration robust z-score -1.65; nuclei per well, duplicate mean 4140; inactive.
With knock-down of ACP2 the results were migration robust z-score -2.02; nuclei per well, duplicate mean 5750; active.
CDC25C gave migration robust z-score -0.02; nuclei per well, duplicate mean 5068; inactive.
For BRINP2 the deposit lists migration robust z-score 0.55; nuclei per well, duplicate mean 5970; inactive.
For CC2D2A the deposit lists migration robust z-score 1.04; nuclei per well, duplicate mean 5358; inactive.

Taken from above.
RAB27A, Call = inactive
Value for OR2C1 under “migration robust z-score”: -0.34

Next records:
For CLN8, the entry reads migration robust z-score 1.44; nuclei per well, duplicate mean 7319; inactive.
ABCC2 scored migration robust z-score 0.28; nuclei per well, duplicate mean 5887; inactive.
Silencing of ATOH8 came out at: migration robust z-score -0.56; nuclei per well, duplicate mean 6174; inactive.
With knock-down of RPS6KB2, the record shows migration robust z-score 0.6; nuclei per well, duplicate mean 6194; inactive.
RFX5 gave migration robust z-score -3.4; nuclei per well, duplicate mean 2515; inactive.
Knock-down of PEBP4 resulted in: migration robust z-score 1.17; nuclei per well, duplicate mean 5412; inactive.
Knock-down of LRIT1 gave: migration robust z-score -0.35; nuclei per well, duplicate mean 5104; inactive.
DDX47 scored migration robust z-score -0.13; nuclei per well, duplicate mean 6772; inactive.
Against PCDHB7 the deposit lists migration robust z-score -2.04; nuclei per well, duplicate mean 4554; active.
After knock-down of CBLN3 the results were migration robust z-score -0.14; nuclei per well, duplicate mean 6656; inactive.
ZBTB35 showed migration robust z-score 0.46; nuclei per well, duplicate mean 4815; inactive.
Knock-down of AURKB resulted in: migration robust z-score 0.65; nuclei per well, duplicate mean 5393; inactive.
